Laboratory results from PubChem BioAssay AID1259415 (National Center for Advancing Translational Sciences (NCATS), 2018).
Among all 410,000 compounds or so, about 18,000 (4.4%) were called active. The inconclusive results got no clear call from the source; some entries with a clear call stand among them for comparison. No stated cut-off is given here; in the data, active means activity change below about -60%; inconclusive means no clear call, values can overlap the other calls; inactive means above about -39%.

experiment: qHTS Assay for inhibitors of the human cytomegalovirus (HCMV); conditions: HFF cells, HCMV-luciferase reporter, 72 h; at 57.5 µM; active compounds read low
In short: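 After 16 h attachment at 37C, HFF cells received test compound and HCMV-luciferase (1 PFU/cell); reporter luminescence read 72 h later, data normalized against buffer-only and known inhibitor Salinomycin.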
On the % scale 0 is the no-effect control and ±100 the full control effect.

| SMILES | activity change, negative = inhibition |
| --- | --- |
| CC1(C(=O)NS(=O)(=O)c2cccc(C#N)c2)CCN1C(=O)c1ccccc1 (stereo not given) | inactive: -17.5% |
| O=C(NCCS(=O)(=O)N1CCN(c2cccc(Cl)c2)CC1)C(c1ccccc1)c1ccccc1 | inactive: 11.5% |
| Cc1cc(C)n(-c2nc(NCc3cccnc3)c3c4c(sc3n2)COC(C)(C)C4)n1 | inactive: -33.9% |
| Cc1cccc(C)c1NC(=O)CCCSc1nnc(-c2ccco2)n1-c1ccccc1 | inconclusive: -46.1% |
| CCC(=O)N1CCCc2cc(S(=O)(=O)N3CCCc4ccccc43)ccc21 | inactive: -37.9% |
| CC1CCN(CCCCOc2ccccc2-c2ccccc2)CC1 | inconclusive: -42.1% |
| O=c1c2ccccc2nc(SCc2ccccc2)n1Cc1ccco1 | inactive: -32.3% |
| CC(OCC(O)CN1CCN(S(=O)(=O)c2ccc(Cl)cc2)CC1)c1ccc(Cl)cc1 (stereo not given) | inconclusive: -43% |
| CC(=O)N1CCC(N(CCN2CCOCC2)C(=S)Nc2cc(C)ccc2C)CC1 | inconclusive: -40.7% |
| N#Cc1ccc(COn2nnc3ccccc32)cc1 | inactive: -16.6% |
| COc1ccc(NC(=O)Cn2c(=O)n(-c3ccccc3)c(=O)c3oc4ccccc4c32)c(OC)c1 | inconclusive: -45.2% |
| COc1ccc(/C=C/C(=O)C23CC4CC(CC(C4)C2)C3)cc1CN1CCOCC1 | active: -81.6% |
| COCCn1c(=O)[nH]c2cc(C(=O)N3CCN(Cc4ccc5c(c4)OCO5)CC3)ccc2c1=O | inconclusive: -51.7% |
| O=C(NC1CCCN(Cc2ccccc2F)C1)c1cccs1 (stereo not given) | inconclusive: -54.8% |
| CCn1cc([C@@H]2C[C@H]3CN(Cc4cccc(Cl)c4)C(=O)[C@]34CCCN24)c(C)n1 | inconclusive: -52.7% |
| COc1ccc(CCNC(=O)c2ccc(Cn3c(=O)c4cccn4c4cccnc43)cc2)cc1OC | inactive: 5.27% |
| O=C(O)/C=C\C(=O)Nc1ccc(Oc2ccc(Br)cc2)cc1 | inconclusive: -43.7% |
| O=C(CCCCCNC(=O)c1ccccc1)N/N=C/c1ccccc1O | inactive: -33.7% |
| CC1Cn2c(nnc2-c2ccccc2O)S1 (stereo not given) | inactive: 0.395% |
| CCc1ccccc1NC(=O)Cn1c(=O)n(CCc2ccccc2)c(=O)c2sc3ccccc3c21 | inactive: -5.64% |
| COc1ccc(-c2c3c(nc4sc(C(=O)Nc5cccc(OC)c5)c(N)c24)CC(C)(C)CC3=O)cc1 | inconclusive: -53.9% |
| C[C@@H]1O[C@@H](O[C@@H]2C=C3CC[C@@H]4C(CC[C@]5(C)[C@@H](c6ccc(=O)oc6)CC[C@]45O)[C@@]3(C)CC2)[C@H](O)[C@H](O)[C@H]1O (stereo not given in full) | active: -96.9% |
| CCN(C(=O)c1ccco1)c1nc(CC(=O)Nc2ccc(Cl)cc2)cs1 | inactive: -30.9% |
| COc1ccc(Br)cc1C(=O)Nc1ccccc1N1CCN(C(=O)c2ccccc2)CC1 | inconclusive: -44.7% |
| CC(Oc1ccccc1)C(=O)Nc1ccc(C(=O)OCc2cc(=O)n3nc(C4CC4)sc3n2)cc1 (stereo not given) | inconclusive: -52.2% |
| O=c1[nH]c2ccccc2c(O)c1O | inconclusive: -47.6% |
| CCc1ccc(/C=N/NC(=O)c2nnn(-c3nonc3N)c2CN2CCOCC2)cc1 | inconclusive: -48.7% |
| COc1ccc(Nc2nc3nonc3nc2N2CCCCC2)cc1 | inconclusive: -51.4% |

| SMILES | activity change, negative = inhibition |
| --- | --- |
| CN(C)c1cccc2c1C(=O)c1ccccc1C2=O | inconclusive: -54.9% |
| O=C(COC(=O)c1ccc([N+](=O)[O-])o1)NCCCc1ccccc1 | inconclusive: -47.7% |
| CCn1c(C(=O)NCc2ccccc2Cl)cc2sc(Cl)cc21 | inconclusive: -53.8% |
| CCOC(=O)N1C(=O)NC(=O)C1c1ccccc1 (stereo not given) | inactive: 3.21% |
| Cc1ccccc1-c1nc2sc(-c3ccccc3)cc2c(=O)o1 | inactive: -22.5% |
| COc1ccc(N2CCN(C(=O)c3cn(CC4CCCCC4)nn3)CC2)cc1 | inconclusive: -43.8% |
| CCCc1c(-c2cccc(F)c2)ncn1CCc1ccccc1OC | active: -74.2% |
| NC(=O)CCN1CCN(CCOC2Cc3cc(Cl)ccc3Sc3ccccc32)CC1 (stereo not given) | inconclusive: -54.2% |
| CCc1cc(=O)oc2cc(O[C@@H]3O[C@H](CO)[C@@H](O)[C@H](O)[C@H]3O)c(Cl)cc12 | inconclusive: -44.1% |
| CCOc1ccc(S(=O)(=O)Nc2nc3ccccc3nc2-n2ccc(=NC(=O)c3cccs3)cc2)cc1 | inconclusive: -49.5% |
| Oc1cccc2c(NC(=S)Nc3ccc(OC(F)F)cc3)cccc12 | active: -98.8% |
| O=C(Nc1cccc(-c2csc(Nc3ccc(Cl)cc3)n2)c1)c1cc([N+](=O)[O-])cc(C(F)(F)F)c1 | inconclusive: -47.1% |
| COCc1cc(C)nc(Nc2cc(C)ccc2C)c1C#N | inconclusive: -43.7% |
| CC(C)Oc1ccc(CN2CCC2(C)C(=O)Nc2cccc3cccnc23)cc1 (stereo not given) | active: -77.9% |
| CC(C)c1ccccc1OCC(=O)Nc1nnc(C2CC2)s1 | inconclusive: -44.3% |
| O=C(NC1CCN(S(=O)(=O)c2ccc(F)cc2)CC1)c1ccco1 | inconclusive: -47.4% |
| c1ccc(Nc2nc3ccccc3[nH]2)nc1 | active: -67.5% |
| COc1ccc(-c2cccc(C3CC=CC4C3C(=O)N(Cc3ccccc3)C4c3ccc(C(F)(F)F)cc3)c2)cc1 (stereo not given) | active: -67.3% |
| c1csc(CNc2ncnc3sccc23)c1 | active: -78.5% |
| COc1cc(/C=C2\SC(=S)N(CCC(=O)N3CCCCC3)C2=O)cc(OC)c1OC | inconclusive: -52.2% |
| Cn1c(=O)cc(SCC(=O)NCc2ccc(F)cc2)c2cc(Cl)ccc21 | inactive: -10.6% |
| O=C1NC(=O)/C(=C\c2ccc(Oc3ccc([N+](=O)[O-])cn3)cc2)S1 | inconclusive: -56.2% |
| Clc1ccc2nnnc(-c3ccccc3)c2c1 | active: -102% |
| Cc1cc(NS(=O)(=O)c2ccc(NC(=O)c3ccc(F)cc3)cc2)nc(C)n1 | inactive: 38.9% |
| O=C(Nc1ccncc1)Nc1cccc(Cl)c1Cl | active: -60.7% |
| CCC1(C)Cc2nc(Cl)c(C#N)cc2CO1 (stereo not given) | inconclusive: -56.4% |
| CCC(=O)Nc1ccc(C(=O)OCc2ccccc2Cl)cc1 | inconclusive: -45.8% |

Arranged by length of the SMILES (low to high): four of the compounds above

| SMILES | activity change, negative = inhibition |
| --- | --- |
| c1csc(CNc2ncnc3sccc23)c1 | active: -78.5% |
| CN(C)c1cccc2c1C(=O)c1ccccc1C2=O | inconclusive: -54.9% |
| O=c1c2ccccc2nc(SCc2ccccc2)n1Cc1ccco1 | inactive: -32.3% |
| COc1ccc(-c2cccc(C3CC=CC4C3C(=O)N(Cc3ccccc3)C4c3ccc(C(F)(F)F)cc3)c2)cc1 (stereo not given) | active: -67.3% |
